Where cells or extracts were used, other partners may take part. Protein sequences can lack the tags named with them.
Assays:
[1] = biological target: T1, ABCA5 (PIN-1), native in HGPIN tissue extract (Homo sapiens) (UniProt Q8WWZ7); assay: EMSA; details: crude extract ~5 ug, 1 ug poly(dI-dC); blocked by 20-50 ng unlabeled probe; protein in an extract; label: 32P
T1 sequence: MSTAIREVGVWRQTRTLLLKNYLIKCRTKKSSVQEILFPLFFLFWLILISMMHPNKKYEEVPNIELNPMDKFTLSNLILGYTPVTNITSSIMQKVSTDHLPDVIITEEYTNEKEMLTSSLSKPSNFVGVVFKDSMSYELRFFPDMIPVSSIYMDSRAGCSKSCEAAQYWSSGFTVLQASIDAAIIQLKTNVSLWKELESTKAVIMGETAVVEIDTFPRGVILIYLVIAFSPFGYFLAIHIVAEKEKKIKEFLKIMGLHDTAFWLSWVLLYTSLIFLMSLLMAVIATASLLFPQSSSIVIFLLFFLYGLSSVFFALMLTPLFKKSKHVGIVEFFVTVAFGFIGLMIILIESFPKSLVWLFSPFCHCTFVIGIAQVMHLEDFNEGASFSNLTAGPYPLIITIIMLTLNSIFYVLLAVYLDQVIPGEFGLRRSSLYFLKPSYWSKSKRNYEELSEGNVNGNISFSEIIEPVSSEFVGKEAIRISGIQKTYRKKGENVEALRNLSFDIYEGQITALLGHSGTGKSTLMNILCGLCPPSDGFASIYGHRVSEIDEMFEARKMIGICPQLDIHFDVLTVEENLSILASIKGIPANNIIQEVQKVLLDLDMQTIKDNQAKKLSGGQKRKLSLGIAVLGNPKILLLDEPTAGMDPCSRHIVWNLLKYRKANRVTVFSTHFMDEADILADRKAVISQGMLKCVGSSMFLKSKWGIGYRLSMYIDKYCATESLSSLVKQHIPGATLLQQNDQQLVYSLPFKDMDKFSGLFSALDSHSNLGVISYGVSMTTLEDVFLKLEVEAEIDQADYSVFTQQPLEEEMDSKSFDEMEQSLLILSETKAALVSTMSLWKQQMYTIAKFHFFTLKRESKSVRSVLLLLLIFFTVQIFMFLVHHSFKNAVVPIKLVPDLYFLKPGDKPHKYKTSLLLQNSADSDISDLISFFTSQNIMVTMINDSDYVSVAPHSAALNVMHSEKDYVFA

[2] = biological target: T2, ABCA5 (PIN-1), recombinant from lambda phage cDNA clones (Homo sapiens) (UniProt Q8WWZ7); assay: EMSA; details: single band shift; blocked by unlabeled probe; wild-type phage host extract gave no shift; poly(dI-dC); protein in a lysate after overexpression; label: 32P
T2 sequence: T1 sequence

TCCAGCGA (double strand) [PIN-specific 8-mer duplex probe]
binding result [1]: binds | binding result [2]: binds
